No constants are given. Whether binding was seen depends on the method and setting. Binding seen in cells or lysates may run through a third protein. Some entries that bind do so weakly or less than the wild type.
Assays:
[1] = biological target: Cubilin (wild type) (human) (UniProt O60494); assay: proximity ligation; Duolink PLA on fixed co-transfected HEK293T cells with primary antibodies against HA and AMN
[2] = biological target: Cubilin (wild type) (human) (UniProt O60494); assay: co-IP; protein extracts of co-transfected HEK293T cells incubated with anti-HA (or IgG) for 24 h, then Protein A/G magnetic beads for 24 h; blot for AMN

Chains of the proteins cited; added tags and fusions are not shown. Residues count along the entry.
UniProt O60494, residues 36-3623: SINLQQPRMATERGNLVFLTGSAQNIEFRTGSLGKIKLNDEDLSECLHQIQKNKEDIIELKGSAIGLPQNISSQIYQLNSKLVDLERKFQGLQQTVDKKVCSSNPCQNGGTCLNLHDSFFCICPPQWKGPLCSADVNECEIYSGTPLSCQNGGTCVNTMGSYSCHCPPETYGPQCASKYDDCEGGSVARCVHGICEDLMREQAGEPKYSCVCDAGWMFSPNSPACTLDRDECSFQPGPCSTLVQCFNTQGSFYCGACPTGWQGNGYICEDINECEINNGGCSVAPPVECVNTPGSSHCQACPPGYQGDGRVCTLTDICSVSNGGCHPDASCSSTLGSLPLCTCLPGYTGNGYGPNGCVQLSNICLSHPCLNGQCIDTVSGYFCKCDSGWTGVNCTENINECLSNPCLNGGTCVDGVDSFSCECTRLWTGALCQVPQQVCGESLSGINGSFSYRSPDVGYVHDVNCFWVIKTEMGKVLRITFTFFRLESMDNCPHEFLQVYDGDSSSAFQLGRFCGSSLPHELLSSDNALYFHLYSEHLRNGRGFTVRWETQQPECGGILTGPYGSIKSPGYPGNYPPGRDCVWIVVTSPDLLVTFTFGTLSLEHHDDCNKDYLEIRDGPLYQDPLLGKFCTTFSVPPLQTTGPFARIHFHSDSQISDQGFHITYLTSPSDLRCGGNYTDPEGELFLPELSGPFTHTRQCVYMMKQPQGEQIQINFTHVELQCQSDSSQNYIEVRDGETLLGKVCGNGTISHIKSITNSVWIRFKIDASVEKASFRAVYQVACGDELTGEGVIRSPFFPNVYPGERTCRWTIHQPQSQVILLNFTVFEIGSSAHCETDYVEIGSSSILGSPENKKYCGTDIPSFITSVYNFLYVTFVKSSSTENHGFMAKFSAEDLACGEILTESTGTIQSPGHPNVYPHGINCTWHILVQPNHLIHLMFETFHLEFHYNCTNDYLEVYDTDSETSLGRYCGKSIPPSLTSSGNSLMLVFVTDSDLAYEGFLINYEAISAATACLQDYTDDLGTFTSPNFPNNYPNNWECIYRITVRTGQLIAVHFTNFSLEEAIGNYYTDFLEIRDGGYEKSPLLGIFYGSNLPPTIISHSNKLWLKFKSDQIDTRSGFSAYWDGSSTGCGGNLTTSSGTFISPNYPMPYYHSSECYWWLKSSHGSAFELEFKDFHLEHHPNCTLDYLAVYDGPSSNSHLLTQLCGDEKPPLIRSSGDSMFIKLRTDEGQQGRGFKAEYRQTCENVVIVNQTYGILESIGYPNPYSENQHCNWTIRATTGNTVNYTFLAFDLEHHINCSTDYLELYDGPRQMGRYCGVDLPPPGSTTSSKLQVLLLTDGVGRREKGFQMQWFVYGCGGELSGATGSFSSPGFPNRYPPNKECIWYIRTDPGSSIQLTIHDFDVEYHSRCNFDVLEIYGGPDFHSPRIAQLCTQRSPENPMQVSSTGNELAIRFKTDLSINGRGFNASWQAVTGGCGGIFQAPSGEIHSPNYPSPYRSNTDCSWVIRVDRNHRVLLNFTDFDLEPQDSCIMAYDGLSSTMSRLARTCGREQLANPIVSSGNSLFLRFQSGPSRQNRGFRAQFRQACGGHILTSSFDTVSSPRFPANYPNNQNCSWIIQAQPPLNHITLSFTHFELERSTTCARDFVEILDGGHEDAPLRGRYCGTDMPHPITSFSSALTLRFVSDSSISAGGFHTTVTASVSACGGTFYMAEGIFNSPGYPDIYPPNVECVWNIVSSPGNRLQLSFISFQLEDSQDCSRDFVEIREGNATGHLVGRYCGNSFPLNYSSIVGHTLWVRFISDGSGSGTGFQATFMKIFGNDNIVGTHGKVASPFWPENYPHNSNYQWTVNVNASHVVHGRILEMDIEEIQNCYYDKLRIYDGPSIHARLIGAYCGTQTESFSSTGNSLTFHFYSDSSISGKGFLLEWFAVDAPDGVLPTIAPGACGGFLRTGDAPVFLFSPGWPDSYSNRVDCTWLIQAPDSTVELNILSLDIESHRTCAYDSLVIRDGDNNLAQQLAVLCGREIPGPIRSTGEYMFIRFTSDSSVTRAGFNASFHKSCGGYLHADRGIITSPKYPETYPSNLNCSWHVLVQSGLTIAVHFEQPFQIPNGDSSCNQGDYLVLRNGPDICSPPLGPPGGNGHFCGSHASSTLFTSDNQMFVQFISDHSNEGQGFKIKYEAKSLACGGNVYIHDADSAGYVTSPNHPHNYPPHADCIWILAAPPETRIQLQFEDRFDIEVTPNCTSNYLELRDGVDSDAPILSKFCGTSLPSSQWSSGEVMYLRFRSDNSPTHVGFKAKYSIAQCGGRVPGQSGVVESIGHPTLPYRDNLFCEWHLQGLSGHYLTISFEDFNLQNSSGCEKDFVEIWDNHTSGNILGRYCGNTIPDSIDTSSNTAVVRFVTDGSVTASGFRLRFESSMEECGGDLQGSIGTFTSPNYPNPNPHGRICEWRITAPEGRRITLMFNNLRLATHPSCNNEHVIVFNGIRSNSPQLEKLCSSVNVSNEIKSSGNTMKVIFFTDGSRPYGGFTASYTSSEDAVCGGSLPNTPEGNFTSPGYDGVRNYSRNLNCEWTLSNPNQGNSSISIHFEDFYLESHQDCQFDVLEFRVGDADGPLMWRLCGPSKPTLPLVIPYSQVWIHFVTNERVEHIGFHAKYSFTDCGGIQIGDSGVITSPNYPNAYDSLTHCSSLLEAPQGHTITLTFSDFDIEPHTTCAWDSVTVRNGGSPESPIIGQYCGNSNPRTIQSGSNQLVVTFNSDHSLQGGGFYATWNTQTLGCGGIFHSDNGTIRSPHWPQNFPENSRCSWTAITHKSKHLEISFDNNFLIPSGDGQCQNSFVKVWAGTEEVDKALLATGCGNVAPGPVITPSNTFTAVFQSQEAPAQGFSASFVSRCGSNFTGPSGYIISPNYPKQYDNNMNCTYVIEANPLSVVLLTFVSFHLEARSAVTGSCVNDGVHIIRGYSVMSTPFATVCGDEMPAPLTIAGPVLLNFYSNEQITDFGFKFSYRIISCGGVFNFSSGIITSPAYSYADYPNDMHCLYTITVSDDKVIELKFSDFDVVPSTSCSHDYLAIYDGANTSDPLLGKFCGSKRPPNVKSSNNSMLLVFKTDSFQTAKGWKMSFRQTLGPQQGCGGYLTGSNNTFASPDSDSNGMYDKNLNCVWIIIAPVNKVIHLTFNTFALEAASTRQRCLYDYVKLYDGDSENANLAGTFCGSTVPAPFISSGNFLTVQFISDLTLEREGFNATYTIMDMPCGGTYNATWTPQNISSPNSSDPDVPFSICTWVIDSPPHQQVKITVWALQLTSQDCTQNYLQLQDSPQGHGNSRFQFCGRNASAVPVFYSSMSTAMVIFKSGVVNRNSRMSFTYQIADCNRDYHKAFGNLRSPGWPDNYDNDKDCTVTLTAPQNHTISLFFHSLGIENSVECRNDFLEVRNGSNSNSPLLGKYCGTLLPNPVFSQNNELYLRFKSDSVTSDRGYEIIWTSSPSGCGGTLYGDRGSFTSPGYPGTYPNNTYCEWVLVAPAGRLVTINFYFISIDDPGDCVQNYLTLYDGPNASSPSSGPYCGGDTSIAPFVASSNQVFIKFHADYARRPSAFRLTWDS

B1: Amnionless (protein, UniProt Q9BXJ7 20-453)
chain: VSKLWVPNTDFDVAANWSQNRTPCAGGAVEFPADKMVSVLVQEGHAVSDMLLPLDGELVLASGAGFGVSDVGSHLDCGAGEPAVFRDSDRFSWHDPHLWRSGDEAPGLFFVDAERVPCRHDDVFFPPSASFRVGLGPGASPVRVRSISALGRTFTRDEDLAVFLASRAGRLRFHGPGALSVGPEDCADPSGCVCGNAEAQPWICAALLQPLGGRCPQAACHSALRPQGQCCDLCGAVVLLTHGPAFDLERYRARILDTFLGLPQYHGLQVAVSKVPRSSRLREADTEIQVVLVENGPETGGAGRLARALLADVAENGEALGVLEATMRESGAHVWGSSAAGLAGGVAAAVLLALLVLLVAPPLLRRAGRLRWRRHEAAAPAGAPLGFRNPVFDVTASEELPLPRRLSLVPKAAADSTSHSYFVNPLFAGAEAEA
binding [1]: binds | binding [2]: binds
